Entries after “also recorded” stand apart in the source; their conditions may differ. For at least one compound, name, drawing or mass did not settle the structure.
Legend:
[1] = target: SARS-CoV RdRp (nsp12, nsp7 and nsp8) (Severe acute respiratory syndrome coronavirus, UniProt P0C6X7); type: biochemical
[2] = target: SARS-CoV-2 RdRp (nsp12, nsp7 and nsp8) (Severe acute respiratory syndrome coronavirus 2, UniProt P0DTD1); type: biochemical
[3] = tested on: RdRp of SARS-CoV and/or SARS-CoV-2; type: biochemical
[4] = tested on: SARS-CoV-2-induced enhancement of TNF-α and IL-6; details: cited from earlier work
[5] = target: SARS-CoV-2 exonuclease complex (nsp14/nsp10) (Severe acute respiratory syndrome coronavirus 2, UniProt P0DTD1); test: Inhibition of SARS-CoV-2 exonuclease, MALDI-TOF MS; type: biochemical; details: 150 µM inhibitor; 30 nM nsp14/nsp10, 37° C., 15 min
[6] = tested on: SARS-CoV-2 in Calu-3 lung cells; details: combination of EPCLUSA (Sofosbuvir/Velpatasvir) with Remdesivir; cited from earlier work

Nc1nc(=O)c2ncn([C@H]3C=C[C@@H](COP(=O)(O)OP(=O)(O)OP(=O)(O)O)C3)c2[nH]1 [Car-TP, Carbovir 5′-triphosphate]
termination of the polymerase reaction [1]: terminate the polymerase reaction
termination of the polymerase reaction [2]: obligate terminator of the SARS-CoV-2 RdRp; also recorded: complete termination; also recorded: better terminators than Ent-TP
termination of the polymerase reaction (summary of the 11 tested) [3]: complete termination of the polymerase reaction

COC(=O)N[C@H](C(=O)N1CCC[C@H]1c1nc(-c2ccc(-c3ccc(-c4c[nH]c([C@@H]5CCCN5C(=O)[C@@H](NC(=O)OC)C(C)C)n4)cc3)cc2)c[nH]1)C(C)C [Daclatasvir]
effect on SARS-CoV-2-induced TNF-α and IL-6 [4]: reduce SARS-CoV-2-induced enhancement of TNF-α and IL-6

COC(=O)N[C@H](C(=O)N1CCC[C@H]1c1nc(-c2ccc3c(c2)O[C@@H](c2ccccc2)n2c-3cc3cc(-c4c[nH]c([C@@H]5CCCN5C(=O)[C@@H](NC(=O)OC)C(C)C)n4)ccc32)c[nH]1)C(C)C [Elbasvir]
inhibition of exonuclease activity [5]: able to inhibit the exonuclease

CCC(CC)COC(=O)[C@H](C)N[P@](=O)(OC[C@H]1O[C@@](C#N)(c2ccc3c(N)ncnn23)[C@H](O)[C@@H]1O)Oc1ccccc1 [Remdesivir]
increase of the potency of Remdesivir [6]: 25 fold

Source: patent US20230172961A1 (priority 2020, published 2023)
